Consider three molecules from patent publication US20170049847A1.

By UniProt entry, the sequences of proteins in these tests, tags left out. Residues count along the entry.
UniProt P08581, residues 25-932: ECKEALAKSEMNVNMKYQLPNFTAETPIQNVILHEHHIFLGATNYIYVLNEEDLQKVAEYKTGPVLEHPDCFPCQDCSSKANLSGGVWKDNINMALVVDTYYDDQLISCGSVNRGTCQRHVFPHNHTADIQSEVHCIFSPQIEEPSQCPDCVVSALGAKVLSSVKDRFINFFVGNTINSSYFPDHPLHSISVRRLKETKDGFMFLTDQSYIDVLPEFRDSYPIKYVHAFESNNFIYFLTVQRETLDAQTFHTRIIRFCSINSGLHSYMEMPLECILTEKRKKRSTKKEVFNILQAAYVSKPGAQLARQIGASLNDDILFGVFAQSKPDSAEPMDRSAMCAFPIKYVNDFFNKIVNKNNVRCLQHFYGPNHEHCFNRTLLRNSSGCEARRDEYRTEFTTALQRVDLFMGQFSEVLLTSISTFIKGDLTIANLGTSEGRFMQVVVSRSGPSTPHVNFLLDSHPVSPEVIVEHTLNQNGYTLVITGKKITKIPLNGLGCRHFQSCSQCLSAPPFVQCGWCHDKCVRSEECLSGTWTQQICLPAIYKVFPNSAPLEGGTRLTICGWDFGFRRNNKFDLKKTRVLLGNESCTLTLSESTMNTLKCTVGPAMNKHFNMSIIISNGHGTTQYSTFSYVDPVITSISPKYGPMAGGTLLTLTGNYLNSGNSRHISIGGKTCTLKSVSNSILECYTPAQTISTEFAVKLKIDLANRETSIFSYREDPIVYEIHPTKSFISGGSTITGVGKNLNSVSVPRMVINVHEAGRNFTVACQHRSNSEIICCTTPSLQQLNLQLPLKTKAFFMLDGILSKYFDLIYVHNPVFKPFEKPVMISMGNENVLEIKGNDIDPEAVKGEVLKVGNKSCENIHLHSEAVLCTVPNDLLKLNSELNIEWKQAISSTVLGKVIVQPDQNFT

Test [1] deals with T1, BMPR-IB (R&D Systems) (UniProt O00238).
T1 sequence (looked up): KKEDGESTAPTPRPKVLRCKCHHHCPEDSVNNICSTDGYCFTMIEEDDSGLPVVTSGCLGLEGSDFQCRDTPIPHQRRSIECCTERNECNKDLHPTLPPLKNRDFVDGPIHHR
In words: ELISA, peptide coated on plate, soluble BMPR-IB added, anti-human IgG-HRP, OD 450 nm. For orientation: An ELISA detects its analyte on a solid surface through an enzyme-linked reagent.

The target in test [2] is T1, BMPR-IB (R&D Systems). In words: ELISA of Example 2-3, told again in Example 2-4.
For test [3], the target named is HGFR (R&D Systems) (UniProt P08581). In words: ELISA, peptide coated on plate, soluble HGFR added, anti-human IgG-HRP, OD 450 nm.
For test [4] the target is unchanged. The test is described as follows: ELISA of Example 2-1, told again in Example 2-2.

Results are given in words; binding and its absence hold for the method and conditions named. Some binding calls cover weakened binding; strength is not graded here.

As to ACFTRTSHAC [peptide of SEQ ID NO: 2], the binding result with BMPR-IB (R&D Systems) [1] and with BMPR-IB (R&D Systems) [2] was “binds” in each case.
Turning to ACRSAIGRPC [peptide of SEQ ID NO: 1], the binding result in the test with HGFR (R&D Systems) [3] and with HGFR (R&D Systems) [4] was “binds” throughout.
Turning to ACDGRTQALC [peptide of SEQ ID NO: 3], the binding entry in the test with HGFR (R&D Systems) [3] and with HGFR (R&D Systems) [4] was “binds” in each case.
